Results are given in words; binding and its absence hold for the method and conditions named. Binding seen in cells or lysates may run through a third protein. Here binding means that the protein was enriched with, or labelled near, the bait; the list need not be complete.
Key:
[1] = molecular target: V5-tagged TbID fused to the N-terminus of emerin (mouse (cDNA library from C3H/10T1/2 cells)) (UniProt O08579); experiment: proximity labelling
[2] = molecular target: V5-tagged TbID fused to the N-terminus of LBR (mouse (cDNA library from C3H/10T1/2 cells)) (UniProt Q3U9G9); experiment: proximity labelling

Sequences of proteins named here, by UniProt entry; tags and fusion partners are left off. A change or cut given only in a name is not applied to a line headed by its entry.
UniProt O08579: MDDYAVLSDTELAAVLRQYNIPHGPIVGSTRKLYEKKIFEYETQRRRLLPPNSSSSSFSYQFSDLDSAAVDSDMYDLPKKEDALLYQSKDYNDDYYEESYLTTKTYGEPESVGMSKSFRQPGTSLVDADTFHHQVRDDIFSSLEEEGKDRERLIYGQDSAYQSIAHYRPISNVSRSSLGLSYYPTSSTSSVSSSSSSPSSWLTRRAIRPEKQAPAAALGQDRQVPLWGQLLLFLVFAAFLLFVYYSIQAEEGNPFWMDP
UniProt Q3U9G9: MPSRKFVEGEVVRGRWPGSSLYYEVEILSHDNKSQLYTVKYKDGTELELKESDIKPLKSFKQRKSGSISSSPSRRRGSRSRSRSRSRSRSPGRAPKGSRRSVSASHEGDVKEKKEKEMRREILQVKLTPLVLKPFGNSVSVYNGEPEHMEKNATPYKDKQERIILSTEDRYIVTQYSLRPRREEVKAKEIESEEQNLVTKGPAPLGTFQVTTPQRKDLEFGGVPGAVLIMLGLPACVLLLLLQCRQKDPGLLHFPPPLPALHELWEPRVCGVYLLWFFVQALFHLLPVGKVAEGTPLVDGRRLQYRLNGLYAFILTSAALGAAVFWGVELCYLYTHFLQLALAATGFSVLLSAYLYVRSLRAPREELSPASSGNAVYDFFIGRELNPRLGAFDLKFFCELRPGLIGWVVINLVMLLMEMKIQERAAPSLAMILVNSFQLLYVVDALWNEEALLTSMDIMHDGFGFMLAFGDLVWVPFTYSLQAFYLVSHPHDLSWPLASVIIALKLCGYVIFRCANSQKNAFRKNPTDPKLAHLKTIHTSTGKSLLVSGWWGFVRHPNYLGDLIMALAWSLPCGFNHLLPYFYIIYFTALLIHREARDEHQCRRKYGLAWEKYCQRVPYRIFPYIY

binding [1]: binds | binding [2]: binds
B1: Sun2 (protein, UniProt Q8BJS4 1-731)
chain: MSRRSQRLTRYSQDDNDGGSSSSGASSVAGSQGTVFKDSPLRTLKRKSSNMKHLSPAPQLGPSSDSHTSYYSESVVRESYIGSPRAVSLARSALLDDHLHSEPYWSGDLRGRRRRGTGGSESSKANGLTAESKASEDFFGSSSGYSSEDDLAGYTDSDQHSSGSRLRSAASRAGSFVWTLVTFPGRLFGLLYWWIGTTWYRLTTAASLLDVFVLTRSRHFSLNLKSFLWFLLLLLLLTGLTYGAWHFYPLGLQTLQPAVVSWWAAKESRKQPEVWESRDASQHFQAEQRVLSRVHSLERRLEALAADFSSNWQKEAIRLERLELRQGAAGHGGGSSLSHEDALSLLEGLVSRREATLKEDLRRDTVAHIQEELATLRAEHHQDSEDLFKKIVQASQESEARVQQLKTEWKSMTQEAFQESSVKELGRLEAQLASLRQELAALTLKQNSVADEVGLLPQKIQAARADVESQFPDWIRQFLLGDRGARSGLLQRDEMHAQLQELENKILTKMAEMQGKSAREAAASLGQILQKEGIVGVTEEQVHRIVKQALQRYSEDRIGMVDYALESGGASVISTRCSETYETKTALLSLFGIPLWYHSQSPRVILQPDVHPGNCWAFQGPQGFAVVRLSARIRPTAVTLEHVPKALSPNSTISSAPKDFAIFGFDEDLQQEGTLLGTFAYDQDGEPIQTFYFQASKMATYQVVELRILTNWGHPEYTCIYRFRVHGEPAH

— doi:10.1101/2022.05.11.491529
